# Laboratory results reported in patent US10668040B2, “Treatment of urea cycle disorders in neonates and infants” (Horizon Therapeutics, LLC, priority 2017, dated 2020).
# Some results come without the dose or concentration used. Marks after values point to notes of the source that are not given here.
# Experiments:
# UCD patients [1] = experiment: HPN-100-009 (Example 2): amino acid assessment; format: in vivo, human; conditions: Age 2 Months to <2 Years
# UCD patients [2] = experiment: Example 3: amino acids baseline and change from baseline up to Month 24; format: in vivo, human; conditions: Age 0 to <2 months
smiles,measurement,setting,value
"O=C(CCCc1ccccc1)OCC(COC(=O)CCCc1ccccc1)OC(=O)CCCc1ccccc1 [RAVICTI, benzenebutanoic acid, 1′,1″-(1,2,3-propanetriyl) ester]","Glutamate, Change from Baseline at Day 7",UCD patients [1],−54.5 (±92.63) μmol/L
same,"Glutamate, Change from Baseline at Month 2",UCD patients [1],7.8 (±25.65) μmol/L
same,"Glutamate, Change from Baseline at Month 3",UCD patients [1],2 (±32.53) μmol/L
same,"Glutamate, Change from Baseline at Month 4",UCD patients [1],−32.7 (±5.51) μmol/L
same,"Glutamate, Change from Baseline at Month 5",UCD patients [1],−10 (±n/a)^c μmol/L
same,"Glutamate, Change from Baseline at Month 6",UCD patients [1],−3.3 (±48.69) μmol/L
same,"Glutamate, Change from Baseline at Month 9",UCD patients [1],−23 (±n/a)^c μmol/L
same,"Glutamine, Change from Baseline at Day 7",UCD patients [1],−184.3 (±168.66) μmol/L
same,"Glutamine, Change from Baseline at Month 2",UCD patients [1],−174.6 (±318.25) μmol/L
same,"Glutamine, Change from Baseline at Month 3",UCD patients [1],−134.5 (±136.47) μmol/L
same,"Glutamine, Change from Baseline at Month 4",UCD patients [1],−292 (±384.81) μmol/L
same,"Glutamine, Change from Baseline at Month 5",UCD patients [1],−240 (±n/a)^c μmol/L
same,"Glutamine, Change from Baseline at Month 6",UCD patients [1],−114.7 (±734.14) μmol/L
same,"Glutamine, Change from Baseline at Month 9",UCD patients [1],−859 (±n/a)^c μmol/L
same,"Isoleucine, Change from Baseline at Day 7",UCD patients [1],2.7 (±19.16) μmol/L
same,"Isoleucine, Change from Baseline at Month 2",UCD patients [1],4.2 (±45.86) μmol/L
same,"Isoleucine, Change from Baseline at Month 3",UCD patients [1],−30.5 (±20.51) μmol/L
same,"Isoleucine, Change from Baseline at Month 4",UCD patients [1],−12.7 (±16.62) μmol/L
same,"Isoleucine, Change from Baseline at Month 5",UCD patients [1],−19 (±n/a)^c μmol/L
same,"Isoleucine, Change from Baseline at Month 6",UCD patients [1],−20.7 (±9.07) μmol/L
same,"Isoleucine, Change from Baseline at Month 9",UCD patients [1],8 (±n/a)^c μmol/L
same,"Leucine, Change from Baseline at Day 7",UCD patients [1],−0.8 (±32.76) μmol/L
same,"Leucine, Change from Baseline at Month 2",UCD patients [1],9.8 (±65.97) μmol/L
same,"Leucine, Change from Baseline at Month 3",UCD patients [1],−35 (±35.36) μmol/L
same,"Leucine, Change from Baseline at Month 4",UCD patients [1],−21.7 (±19.22) μmol/L
same,"Leucine, Change from Baseline at Month 5",UCD patients [1],−32 (±n/a)^c μmol/L
same,"Leucine, Change from Baseline at Month 6",UCD patients [1],−30.3 (±11.59) μmol/L
same,"Leucine, Change from Baseline at Month 9",UCD patients [1],−26 (±n/a)^c μmol/L
same,"Sum of Glutamate and Glutamine, Change from Baseline at Day 7",UCD patients [1],−238.8 (±203.57) μmol/L
same,"Sum of Glutamate and Glutamine, Change from Baseline at Month 2",UCD patients [1],−166.8 (±332.42) μmol/L
same,"Sum of Glutamate and Glutamine, Change from Baseline at Month 3",UCD patients [1],−132.5 (±169) μmol/L
same,"Sum of Glutamate and Glutamine, Change from Baseline at Month 4",UCD patients [1],−324.7 (±389.32) μmol/L
same,"Sum of Glutamate and Glutamine, Change from Baseline at Month 5",UCD patients [1],−250 (±n/a)^c μmol/L
same,"Sum of Glutamate and Glutamine, Change from Baseline at Month 6",UCD patients [1],−118 (±772.5) μmol/L
same,"Sum of Glutamate and Glutamine, Change from Baseline at Month 9",UCD patients [1],−836 (±n/a)^c μmol/L
same,"Valine, Change from Baseline at Day 7",UCD patients [1],4 (±24.13) μmol/L
same,"Valine, Change from Baseline at Month 2",UCD patients [1],40.6 (±90.06) μmol/L
same,"Valine, Change from Baseline at Month 3",UCD patients [1],−45.5 (±27.58) μmol/L
same,"Valine, Change from Baseline at Month 4",UCD patients [1],−17 (±8.19) μmol/L
same,"Valine, Change from Baseline at Month 5",UCD patients [1],−29 (±n/a)^c μmol/L
same,"Valine, Change from Baseline at Month 6",UCD patients [1],−33.7 (±10.21) μmol/L
same,"Valine, Change from Baseline at Month 9",UCD patients [1],70 (±n/a)^c μmol/L
same,Glutamate change from baseline,UCD patients [2]; Day 7,26.81 (±76.417); μmol/L
same,Glutamine change from baseline,UCD patients [2]; Day 7,21.04 (±260.500); μmol/L
same,Isoleucine change from baseline,UCD patients [2]; Day 7,−49.09 (±198.730); μmol/L
same,Leucine change from baseline,UCD patients [2]; Day 7,−81.91 (±273.127); μmol/L
same,Sum of glutamine and glutamate change from baseline,UCD patients [2]; Day 7,47.85 (±230.343); μmol/L
same,Valine change from baseline,UCD patients [2]; Day 7,−63.96 (±290.312); μmol/L
same,Glutamate change from baseline,UCD patients [2]; Month 2,25.16 (±64.474); μmol/L
same,Glutamine change from baseline,UCD patients [2]; Month 2,−27.62 (±379.796); μmol/L
same,Isoleucine change from baseline,UCD patients [2]; Month 2,−1.62 (±233.754); μmol/L
same,Leucine change from baseline,UCD patients [2]; Month 2,−60.80 (±278.083); μmol/L
same,Sum of glutamine and glutamate change from baseline,UCD patients [2]; Month 2,−2.46 (±402.919); μmol/L
same,Valine change from baseline,UCD patients [2]; Month 2,−39.04 (±297.634); μmol/L
same,Glutamate change from baseline,UCD patients [2]; Month 3,50.05 (±73.988); μmol/L
same,Glutamine change from baseline,UCD patients [2]; Month 3,−15.09 (±352.471); μmol/L
same,Isoleucine change from baseline,UCD patients [2]; Month 3,−20.46 (±216.885); μmol/L
same,Leucine change from baseline,UCD patients [2]; Month 3,−51.66 (±269.558); μmol/L
same,Sum of glutamine and glutamate change from baseline,UCD patients [2]; Month 3,34.96 (±371.522); μmol/L
same,Valine change from baseline,UCD patients [2]; Month 3,−23.86 (±290.128); μmol/L
same,Glutamate change from baseline,UCD patients [2]; Month 4,18.77 (±67.561); μmol/L
same,Glutamine change from baseline,UCD patients [2]; Month 4,−113.98 (±230.855); μmol/L
same,Isoleucine change from baseline,UCD patients [2]; Month 4,−67.32 (±173.564); μmol/L
same,Leucine change from baseline,UCD patients [2]; Month 4,−82.82 (±224.269); μmol/L
same,Sum of glutamine and glutamate change from baseline,UCD patients [2]; Month 4,−95.21 (±238.136); μmol/L
same,Valine change from baseline,UCD patients [2]; Month 4,−74.41 (±233.538); μmol/L
same,Glutamate change from baseline,UCD patients [2]; Month 5,57.43 (±98.550); μmol/L
same,Glutamine change from baseline,UCD patients [2]; Month 5,−99.82 (±305.674); μmol/L
same,Isoleucine change from baseline,UCD patients [2]; Month 5,−75.45 (±221.845); μmol/L
same,Leucine change from baseline,UCD patients [2]; Month 5,−118.55 (±311.125); μmol/L
same,Sum of glutamine and glutamate change from baseline,UCD patients [2]; Month 5,−42.39 (±288.782); μmol/L
same,Valine change from baseline,UCD patients [2]; Month 5,−98.67 (±326.300); μmol/L
same,Glutamate change from baseline,UCD patients [2]; Month 6,43.65 (±140.985); μmol/L
same,Glutamine change from baseline,UCD patients [2]; Month 6,−138.16 (±349.269); μmol/L
same,Isoleucine change from baseline,UCD patients [2]; Month 6,−35.94 (±78.367); μmol/L
same,Leucine change from baseline,UCD patients [2]; Month 6,−11.85 (±40.693); μmol/L
same,Sum of glutamine and glutamate change from baseline,UCD patients [2]; Month 6,−94.51 (±297.378); μmol/L
same,Valine change from baseline,UCD patients [2]; Month 6,2.64 (±77.843); μmol/L
same,Glutamate change from baseline,UCD patients [2]; Month 9,33.41 (±150.273); μmol/L
same,Glutamine change from baseline,UCD patients [2]; Month 9,−56.08 (±269.288); μmol/L
same,Isoleucine change from baseline,UCD patients [2]; Month 9,−73.09 (±245.051); μmol/L
same,Leucine change from baseline,UCD patients [2]; Month 9,−115.09 (±338.186); μmol/L
same,Sum of glutamine and glutamate change from baseline,UCD patients [2]; Month 9,−22.66 (±318.034); μmol/L
same,Valine change from baseline,UCD patients [2]; Month 9,−90.40 (±355.316); μmol/L
